Measurements: article PMC4673834
Results are given in words; binding and its absence hold for the method and conditions named. Binding seen in cells or lysates may run through a third protein. Some entries that bind do so weakly or less than the wild type. For some assays here: Tags and fused reporters may be left off the sequences shown.

The chains behind the UniProt entries cited, without tags or fusion partners.
UniProt O70237: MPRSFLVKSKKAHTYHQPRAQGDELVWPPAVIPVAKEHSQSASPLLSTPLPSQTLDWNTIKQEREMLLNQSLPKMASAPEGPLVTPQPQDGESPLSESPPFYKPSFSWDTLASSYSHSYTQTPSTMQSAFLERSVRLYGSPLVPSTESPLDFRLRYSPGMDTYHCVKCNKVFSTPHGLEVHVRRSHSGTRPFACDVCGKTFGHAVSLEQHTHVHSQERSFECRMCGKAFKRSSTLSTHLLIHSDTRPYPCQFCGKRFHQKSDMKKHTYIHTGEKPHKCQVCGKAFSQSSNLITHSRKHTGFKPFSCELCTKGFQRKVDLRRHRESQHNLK

B1: LIM-domain-binding protein 1 (LDB1) (protein, UniProt P70662 1-411)
chain: MSVGCACPGCSSKSFKLYSPKEPPNGNAFPPFHPGTMLDRDVGPTPMYPPTYLEPGIGRHTPYGNQTDYRIFELNKRLQNWTEECDNLWWDAFTTEFFEDDAMLTITFCLEDGPKRYTIGRTLIPRYFRSIFEGGATELYYVLKHPKEAFHSNFVSLDCDQGSMVTQHGKPMFTQVCVEGRLYLEFMFDDMMRIKTWHFSIRQHRELIPRSILAMHAQDPQMLDQLSKNITRCGLSNSTLNYLRLCVILEPMQELMSRHKTYSLSPRDCLKTCLFQKWQRMVAPPAEPARQQPSKRRKRKMSGGSTMSSGGGNTNNSNSKKKSPASTFALSSQVPDVMVVGEPTLMGGEFGDEDERLITRLENTQFDAANGIDDEDSFNNSPALGANSPWNSKPPSSQESKSENPTSQASQ

What was measured:
[1] = molecular target: T1, ETO2 (endogenous) (mouse (endogenous in MEL)) (UniProt O54972); test: co-IP; endogenous ETO2 antibody, 0.5 mg MEL nuclear extract at 100 mM KCl, benzonase, overnight at 4 °C, protein A or G Sepharose, western blot; species-matched IgG control
T1 sequence: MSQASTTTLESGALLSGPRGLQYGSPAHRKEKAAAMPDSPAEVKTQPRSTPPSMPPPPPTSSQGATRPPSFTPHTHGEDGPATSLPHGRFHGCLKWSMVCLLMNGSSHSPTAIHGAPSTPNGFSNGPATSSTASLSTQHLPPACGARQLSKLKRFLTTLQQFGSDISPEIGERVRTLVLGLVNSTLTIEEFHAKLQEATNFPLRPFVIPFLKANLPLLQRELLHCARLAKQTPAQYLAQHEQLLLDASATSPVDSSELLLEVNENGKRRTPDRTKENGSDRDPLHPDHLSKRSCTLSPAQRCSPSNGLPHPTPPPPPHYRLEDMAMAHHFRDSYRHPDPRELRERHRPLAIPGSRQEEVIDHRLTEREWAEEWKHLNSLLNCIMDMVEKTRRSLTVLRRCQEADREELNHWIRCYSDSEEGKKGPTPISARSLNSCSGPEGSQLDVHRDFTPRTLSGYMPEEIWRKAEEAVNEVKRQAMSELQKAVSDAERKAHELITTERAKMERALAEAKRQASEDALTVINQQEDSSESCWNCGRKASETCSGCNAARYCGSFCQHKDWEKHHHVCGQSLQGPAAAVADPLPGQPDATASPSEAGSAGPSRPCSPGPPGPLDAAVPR

ETO2-V5-Bio = molecular target: T2, ETO2-V5-Bio (UniProt O54972); test: pull-down; streptavidin capture of biotinylated ETO2-V5-Bio from nuclear extracts of MEL cells expressing BirA; western blot
T2 sequence (chain, Bio peptide of the tag biotinylated by the bacterial BirA enzyme): T1 sequence

Row | Molecule | binding [1] | binding (ETO2-V5-Bio)
1 | growth factor-independent 1B (GFI1B) (from UniProt O70237 1-330) | binds | 
2 | B1 |  | binds
